Laboratory results as given in PubChem BioAssay AID540276 (National Center for Advancing Translational Sciences (NCATS), 2011).
Out of some 300,000 compounds screened, about 5,400 (1.8%) were called active. Inconclusive means that the source gave no clear call. Such entries were picked first, then a sample of the others. Calls follow the shape of the full dose curve; tested in HEK293 cells. A potency beside an inconclusive call is a rough fit, not a confirmed value.

Experiment: qHTS for inhibitors of binding or entry into cells for Marburg Virus
Conditions: Marburg virus pseudotyped entry inhibition, cell reporter; activity change, negative = inhibition: at 37.8 µM (top of the series) unless noted
% is scaled to controls: 0 for no effect and ±100 for the full control effect; potency is read from the fitted curve at half-maximal effect.

| SMILES | Potency | activity change, negative = inhibition |
| --- | --- | --- |
| COc1ccc(S(=O)(=O)N(C)C)cc1NC(=O)CSc1ncccn1 | inconclusive: 22.4 µM [inhibitor, single point] | – |
| CCc1cccc(CC)c1NC(=O)c1c(C)oc2ccc(O)c(CN3CCCC3)c12 | inconclusive: 3.55 µM [inhibitor, partial curve, poor fit] | – |
| NCC1(c2ccc3c(c2)OCCO3)CCCC1 | inconclusive: 6.31 µM [activator, single point] | – |
| CC(OC(=O)c1ncc(Cl)c(Cl)c1Cl)C(=O)NC1CCCCC1C (stereo not given) | inconclusive: 0.891 µM [inhibitor, single point] | – |
| CCCCNC(=O)c1ccc2c(c1)N=C(CC)c1ccccc1S2 | inconclusive: 1.12 µM [inhibitor, full curve, poor fit] | – |
| CCN1CCN(C(=O)c2ccc(Sc3ccccc3Cl)c([N+](=O)[O-])c2)CC1 | inconclusive: 0.651 µM [inhibitor, single point] | – |
| CC(NS(=O)(=O)c1ccccc1)C(=O)Nc1ccc2c(c1)OCCO2 (stereo not given) | inactive | – |
| COc1ccc(C)cc1NC(=O)CSc1nnc(-c2ccco2)n1N | inactive | – |
| COCCn1c(C)cc(/C=C2\NC(=S)N(C)C2=O)c1C | inactive | – |
| O=C(COC(=O)c1sc2ccccc2c1Cl)NCC1CCCCC1 | inconclusive: 0.0891 µM [activator, full curve, poor fit] | – |
| COc1cccc(/C(O)=C2\C(=O)C(=O)N(c3ccccn3)[C@H]2c2ccccc2OC)c1 | inactive | – |
| CCOc1ccc(S(=O)(=O)N2CCOCC2)cc1NC(=O)CSCc1c(C)noc1C | inactive | – |
| CCn1cc(C(=O)N2CCN(c3cccc(Cl)c3)CC2)c(=O)c2cc(S(=O)(=O)N3CCC(C)CC3)ccc21 | inconclusive: 25.1 µM [inhibitor, single point] | – |
| CCCc1nnc(SCC(=O)Nc2nccs2)o1 | inactive | – |
| O=C(O)c1cc(Cl)ccc1NC(=O)C1CCCO1 (stereo not given) | inconclusive: 32.6 µM [activator, partial curve, poor fit] | – |
| C=Cc1ccc(Cn2c(C)c(CNCCc3ccc(OCC)cc3)c(C(=O)O)c2C)cc1 | inactive | – |
| CC(=O)Nc1ccc(S(=O)(=O)Nc2ncccn2)cc1 | inactive | – |
| O=C(C1CCC1)N1CCN(S(=O)(=O)c2ccc(F)cc2)CC1 | inactive | – |
| CCOC(=O)C1CCN(CCC(=O)Nc2ccc(Br)cc2)CC1 | inconclusive: 15.8 µM [inhibitor, partial curve] | – |
| CC(C)N1C(=O)CCC1C(=O)N1CCC2(CC1)OCCO2 (stereo not given) | inconclusive: 0.73 µM [inhibitor, single point] | – |
| O=C(Oc1c(Cl)cc(Cl)c2cccnc12)c1cccs1 | inconclusive: 16.4 µM [inhibitor, partial curve, poor fit] | – |
| CCN(CC)S(=O)(=O)c1ccc2c(c1)c(=O)c(C(=O)NCCN(C)CCc1ccccc1)cn2C | inconclusive: 20.6 µM [inhibitor, single point] | – |
| COc1ccc(NS(=O)(=O)c2cc(C(=O)OC(C)C(=O)N3CCOCC3)ccc2Cl)cc1 (stereo not given) | inconclusive: 4.47 µM [inhibitor, partial curve, poor fit] | – |
| Cc1nc2cc(C(=O)OCC(=O)N(CC(C)C)C3CCS(=O)(=O)C3)ccc2n1-c1ccccc1 (stereo not given) | inconclusive: 0.73 µM [inhibitor, single point] | – |

Some of the entries so far, with each value named:
COCCn1c(C)cc(/C=C2\NC(=S)N(C)C2=O)c1C
  Potency: inactive
O=C(O)c1cc(Cl)ccc1NC(=O)C1CCCO1 (stereo not given)
  Potency: inconclusive: 32.6 µM [activator, partial curve, poor fit]
COc1ccc(NS(=O)(=O)c2cc(C(=O)OC(C)C(=O)N3CCOCC3)ccc2Cl)cc1 (stereo not given)
  Potency: inconclusive: 4.47 µM [inhibitor, partial curve, poor fit]

Following part:

| SMILES | Potency | activity change, negative = inhibition |
| --- | --- | --- |
| C=CCSc1nnc(-c2cc(C(C)(C)C)nn2Cc2ccc(F)cc2)n1C | inconclusive: 15.8 µM [inhibitor, single point] | – |
| CCn1ncc(Cl)c1C(=O)Nc1ccncc1 | inactive | – |
| CCOc1cccc(/C(O)=C2/C(=O)C(=O)N(Cc3ccco3)C2c2ccncc2)c1 (stereo not given) | inactive | – |
| COC(=O)c1c(NS(=O)(=O)c2ccccc2)csc1C | inconclusive: 0.794 µM [inhibitor, full curve, poor fit] | – |
| CCN(CC)C(=O)c1ccc(O)c(OC)c1 | inconclusive: 4.11 µM [inhibitor, single point] | – |
| Cc1ccc(S(=O)(=O)Oc2ccc(C3C4=C(CCCC4=O)OC4=C3C(=O)CCC4)cc2)cc1 | – | inconclusive: 4.48% [activator] |
| CCOc1ccc(NC(=O)CN(C)C(=O)c2ccccc2SCc2c(C)noc2C)cc1OCC | inconclusive: 5.62 µM [activator, single point] | – |
| COc1cc(/C=N\NC(=O)C2C(=O)NCC2c2ccccc2)cc(OC)c1O (stereo not given) | inconclusive: 14.1 µM [activator, partial curve, poor fit] | – |
| COCCCNC(=O)/C(C#N)=C/c1c(N2CCCCCC2)nc2ccccn2c1=O | inconclusive: 20 µM [inhibitor, partial curve, poor fit] | – |
| O=C1CCCc2nc(N3CCN(c4ccccc4)CC3)ncc21 | inconclusive: 32.6 µM [activator, partial curve, poor fit] | – |
| CC1(C)CCCC(C)(C)N1CC(O)COCCOc1ccc(Br)cc1 (stereo not given) | inconclusive: 12.6 µM [inhibitor, single point] | – |
| CCCOc1ccc(C2C(C(=O)OC)=C(C)N=C3SCCC(=O)N32)cc1OCC (stereo not given) | inconclusive: 1.26 µM [activator, single point] | – |
| CC1CCCCC1NC(=O)NC(=O)CCl (stereo not given) | inconclusive: 20 µM [inhibitor, partial curve, poor fit] | – |
| CCN1C[C@]2(COC(=O)c3ccccc3N)CC[C@H](OC)C34[C@@H]5C[C@H]6[C@H](OC)[C@@H]5[C@](O)(C[C@@H]6OC)[C@@](O)([C@H]13)[C@@H](OC)[C@@H]42 | inactive | – |
| CCCCCCn1c(=O)[nH]c2c(c1=O)CCC2 | inactive | – |
| O=C(CC(=O)c1ccccc1)Nc1cccnc1Cl | inactive | – |
| O=C(Nc1ccc(Cc2ccc(NC(=O)N3CCOCC3)cc2)cc1)N1CCOCC1 | inactive | – |
| O=C(CCN1C(=O)c2cccc([N+](=O)[O-])c2C1=O)NC1CCCCCC1 | inconclusive: 0.112 µM [inhibitor, full curve, poor fit] | – |
| COc1ccc(CN(C(=O)CSc2nnc(-c3ccccc3F)o2)c2ccc(F)cc2)cc1 | inconclusive: 29.1 µM [inhibitor, single point] | – |
| CCOC(=O)N1CCN(Cc2nc(CC3CC3)no2)CC1 | inconclusive: 12.6 µM [activator, partial curve] | – |
| O=S(=O)(c1ccccc1Br)N1CCC(O)(c2cccnc2)CC1 | inconclusive: 2.82 µM [activator, full curve, poor fit] | – |
| COc1cccc(-c2cc(C(F)(F)F)n3ncc(C(=O)N4CCc5ccccc5C4)c3n2)c1 | inconclusive: 29.1 µM [inhibitor, single point] | – |
| CCc1ccc2nc(N(CCN(C)C)C(=O)c3ccc4ncsc4c3)sc2c1 | inconclusive: 25.1 µM [inhibitor, single point] | – |
| CCN1C(=NCc2ccccc2)N[C@@H](CCc2ccccc2)[C@H](C(=O)OC)[C@H]1C | inactive | – |

| SMILES | Potency | activity change, negative = inhibition |
| --- | --- | --- |
| COc1ccccc1/C=C1\SC(=S)N(NS(=O)(=O)c2ccccc2)C1=O | inactive | – |
| O=S1(=O)N=C(Oc2ccccc2)c2ccccc21 | inconclusive: 0.184 µM [inhibitor, partial curve] | – |
| COc1ccc(-c2cc(=O)c3c(O)c(OC)c(OC)c(OC)c3o2)cc1 | inactive | – |
| CCSc1nnc(NC(=O)c2cc(=O)c3cc(C)ccc3o2)s1 | inactive | – |
| O=C(Nc1ccc(Oc2cccnc2)cc1)C1CCN(Cc2ccccc2F)CC1 | inactive | – |
| O=C(Nc1ccc(-c2nc3cccnc3s2)cc1)c1cccnc1Cl | inconclusive: 5.01 µM [inhibitor, full curve, poor fit] | – |
| Brc1ccc2c(c1)C(c1ccc(N3CCOCC3)cc1)=NNC(c1cccs1)=N2 | inactive | – |
| COC(=O)c1c(NC(=O)C2c3ccccc3Oc3ccccc32)sc2c1CCC(C(C)(C)C)C2 (stereo not given) | inconclusive: 35.5 µM [inhibitor, single point] | – |
| COc1cc2c(cc1NC(=O)c1ccccc1C)n(C)c(=O)n2C | inconclusive: 5.01 µM [activator, single point] | – |
| CCNC(=S)N1CC(C)OC(C)C1 (stereo not given) | inconclusive: 0.259 µM [inhibitor, full curve, poor fit] | – |
| Cc1nc(C)c(C(=O)OCC(=O)NCc2ccccc2Cl)s1 | inconclusive: 7.94 µM [activator, partial curve, poor fit] | – |
| CCN1CCN(C2=NC(=O)/C(=C/c3ccc(C)o3)S2)CC1 | inactive | – |
| C(=N/N1CCN(c2ccccc2)CC1)/c1cccs1 | inconclusive: 16.4 µM [activator, partial curve, poor fit] | – |
| O=C1c2ccccc2C(=O)N1Cc1cc(-c2ccccc2)no1 | inactive | – |
| Cc1nc2cc(-c3cccc(F)c3)nn2c(C)c1CCC(=O)NC(C)c1ccccc1 (stereo not given) | inactive | – |
| N#CCC(=O)N/N=C/c1cn(Cc2ccc(Cl)c(Cl)c2)c2ccccc12 | inconclusive: 3.98 µM [inhibitor, partial curve, poor fit] | – |
| COc1ccc(N=C2SC(CC(=O)Nc3ccccc3)C(=O)N2CCc2ccccn2)cc1 (stereo not given) | inactive | – |
| COc1ccc(S(=O)(=O)N2CCCC(C(=O)NC3CC3)C2)cc1OC (stereo not given) | inactive | – |
| COC(=O)CCN(c1ccccc1)C(CNS(=O)(=O)c1ccccc1)c1ccccc1 (stereo not given) | inconclusive: 12.6 µM [inhibitor, partial curve, poor fit] | – |
| Cc1cc(C)c(C)c(S(=O)(=O)NCC(=O)NCC2CCCCC2)c1C | inconclusive: 17.8 µM [inhibitor, single point] | – |
| CNc1nnc(Sc2ncccc2[N+](=O)[O-])s1 | inactive | – |
| Cc1ccc(CNc2ccc3nnc(-c4ccccc4)n3n2)cc1 | inconclusive: 7.31 µM [inhibitor, partial curve, poor fit] | – |
